Results of single-concentration screens

By UniProt entry, the sequences of proteins in these tests, tags left out.
UniProt P9WPC5, whole entry: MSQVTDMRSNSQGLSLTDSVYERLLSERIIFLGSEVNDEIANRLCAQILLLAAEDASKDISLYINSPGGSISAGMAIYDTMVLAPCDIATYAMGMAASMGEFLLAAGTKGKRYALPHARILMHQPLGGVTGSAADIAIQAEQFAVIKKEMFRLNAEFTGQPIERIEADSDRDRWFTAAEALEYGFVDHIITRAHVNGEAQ
UniProt P9WPC3, whole entry partner: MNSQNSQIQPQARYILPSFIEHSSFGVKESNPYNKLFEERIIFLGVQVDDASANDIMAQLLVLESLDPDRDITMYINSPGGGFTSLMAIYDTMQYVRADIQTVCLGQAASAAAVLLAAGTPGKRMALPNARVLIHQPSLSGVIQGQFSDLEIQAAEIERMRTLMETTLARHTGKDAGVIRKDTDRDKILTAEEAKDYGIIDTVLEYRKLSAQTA
UniProt P9WFT3, whole entry: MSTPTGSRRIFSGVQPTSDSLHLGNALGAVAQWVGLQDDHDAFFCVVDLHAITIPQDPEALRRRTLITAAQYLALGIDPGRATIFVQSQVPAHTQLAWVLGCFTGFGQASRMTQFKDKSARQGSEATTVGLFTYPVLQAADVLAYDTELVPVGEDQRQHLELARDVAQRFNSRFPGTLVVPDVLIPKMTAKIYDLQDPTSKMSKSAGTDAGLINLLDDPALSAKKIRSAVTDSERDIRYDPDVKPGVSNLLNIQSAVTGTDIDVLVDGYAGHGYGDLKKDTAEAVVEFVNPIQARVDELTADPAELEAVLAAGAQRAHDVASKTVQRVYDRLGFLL
UniProt P9WNZ1, whole entry: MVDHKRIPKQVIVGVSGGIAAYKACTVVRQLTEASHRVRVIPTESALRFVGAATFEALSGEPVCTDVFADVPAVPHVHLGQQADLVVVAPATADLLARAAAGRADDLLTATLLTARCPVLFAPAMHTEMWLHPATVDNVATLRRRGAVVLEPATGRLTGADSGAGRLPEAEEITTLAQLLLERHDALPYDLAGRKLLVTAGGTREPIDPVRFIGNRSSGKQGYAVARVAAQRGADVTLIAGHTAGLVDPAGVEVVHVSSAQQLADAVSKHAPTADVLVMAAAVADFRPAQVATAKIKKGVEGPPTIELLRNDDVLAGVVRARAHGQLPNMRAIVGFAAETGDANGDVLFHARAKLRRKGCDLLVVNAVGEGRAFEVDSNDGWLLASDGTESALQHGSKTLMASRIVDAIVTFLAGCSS

Source: ChEMBL document CHEMBL3988442, “University of Dundee, Small-Polar-MMV Screening Library” (2021).

ClpP1P2: 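Protease assay of ClpP1P2, read by the AMC dye that it sets free. Target: ClpP1P2, Mycobacterium tuberculosis (UniProt P9WPC5 and UniProt P9WPC3). Compounds at 50 µM. Higher reads as stronger inhibition, judged from the few compounds that gave an IC50. Most other retested compounds had strongly negative values. Size under these conditions: about 69,000 compounds, about 10 of them at 50% or above in at least one test.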
Toxoplasma: 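Assay of Toxoplasma gondii numbers, read through their beta-galactosidase reporter with a colour substrate. Concentration: 10 µM. Higher reads as fewer parasites (inferred from which compounds were picked for retests). About 67,000 compounds were tested under these conditions; 0.38% (about 260) showed 50% or more at least once.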
MtTrpRS: 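Tryptophan-tRNA ligase, Mycobacterium tuberculosis (UniProt P9WFT3). Enzyme assay of tryptophanyl-tRNA synthetase; the read-out is not stated. Compounds at 10 µM. Higher most likely means stronger inhibition; the record gives no direction and few retests gave an IC50. Size under these conditions: about 65,000 compounds, about 64 of them at 50% or above in at least one test.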
CoaBC: 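Coenzyme A biosynthesis protein CoaBC, Mycobacterium tuberculosis (UniProt P9WNZ1). Enzyme assay of CoaBC with a phosphate dye (Biomol Green) read at 650 nm. Compounds at 30 µM. Higher reads as stronger inhibition, judged from the few compounds that gave an IC50. Most strong results did not repeat in a second test. Of about 67,000 compounds tested this way, about 40 (0.06%) reached 50% or more in at least one test.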

The filed quantity is “Percent Effect” (%).
The controls that fix the scale are not given in the record; negative values are as filed.
Compounds were drawn at random from those tested, without regard to their results.

{"smiles": "Cc1ccc(CN2CC[C@@]3(O)CCN(S(=O)(=O)N(C)C)C[C@H]3C2)cc1C", "ClpP1P2": -8.588, "MtTrpRS": -0.7843, "CoaBC": -13.59}
{"smiles": "O=C(c1ccc2c(c1)[nH]c(=O)n2C1CCCC1)N1CC(O)C1", "ClpP1P2": 1.532, "Toxoplasma": -7.882, "MtTrpRS": -7.603, "CoaBC": -4.8}
{"smiles": "O=C(O)C(F)(F)F.[H][C@@]12COC[C@]1(CNC(=O)C1CCC1)CN(Cc1ccccc1C)C2", "Toxoplasma": 10.04}
{"smiles": "Cc1ccc(C(=O)Nc2nc(C)no2)cc1", "ClpP1P2": -4.787, "Toxoplasma": 2.71, "MtTrpRS": -9.723, "CoaBC": 2.477}
{"smiles": "Cc1ccc(S(=O)(=O)NCCCN2CCC(O)CC2)cc1Cl", "ClpP1P2": -1.915, "Toxoplasma": 4.369, "MtTrpRS": 2.004, "CoaBC": -4.019}
{"smiles": "CO[C@H]1CCN(Cc2c(C)noc2C)[C@@H]2CN(Cc3ccncc3)C[C@H]12", "ClpP1P2": 4.456, "CoaBC": 3.171}
{"smiles": "Cc1occc1C(=O)N1C[C@H](Oc2ccccn2)[C@H]2OCCC[C@H]21", "ClpP1P2": 5.119, "MtTrpRS": 1.592, "CoaBC": -1.36}
{"smiles": "OC(CNc1cncc(OCc2ccccc2)n1)c1ccco1", "stereo": "stereo not given", "ClpP1P2": 5.97, "Toxoplasma": 1.61, "MtTrpRS": 1.183, "CoaBC": -6.426}
{"smiles": "CNc1nc(C2CCCN(C(=O)C(C)(C)OC)C2)nc2c1CN(C)CC2", "stereo": "stereo not given", "ClpP1P2": -24.25, "Toxoplasma": 12.87, "MtTrpRS": -4.392, "CoaBC": 2.101}
{"smiles": "O=C(NCc1cnn2cccnc12)C1CC2(CCNCC2)CN1", "stereo": "stereo not given", "ClpP1P2": -7.215, "Toxoplasma": -36.79, "MtTrpRS": -1.932, "CoaBC": -39.18}
{"smiles": "Cc1nc(C(C)(C)NC(=O)Nc2ccc(C#N)cc2)no1", "ClpP1P2": -5.719, "Toxoplasma": -2.908, "MtTrpRS": -1.146, "CoaBC": 3.205}
{"smiles": "CC(C)C1CN(S(=O)(=O)C2CC2)CCCN1Cc1ccc(F)cc1", "stereo": "stereo not given", "ClpP1P2": -4.63, "Toxoplasma": -2.021, "MtTrpRS": -0.09141, "CoaBC": -0.3226}
{"smiles": "O=C(NCCO)Nc1c(F)cccc1Oc1ccccc1", "ClpP1P2": 0.8148, "Toxoplasma": 6.433, "MtTrpRS": 1.65, "CoaBC": 8.931}
{"smiles": "O=C1COC2(COCCN(Cc3cccnc3)C2)CN1c1ccoc1", "stereo": "stereo not given", "ClpP1P2": -20.24, "MtTrpRS": -4.079, "CoaBC": 3.422}
{"smiles": "COCCC(=O)NCc1cccnc1-n1cnc2ccccc21", "ClpP1P2": -0.7343, "Toxoplasma": -5.172, "MtTrpRS": -2.187, "CoaBC": -1.19}
{"smiles": "CC(=O)N(C/C=C/c1ccccc1)CCO", "ClpP1P2": -14.89, "Toxoplasma": -15.17, "MtTrpRS": 3.763, "CoaBC": 4.348}
{"smiles": "CCCS(=O)(=O)NC(C)C(=O)NCc1ccc(N2CCCC2)nc1", "stereo": "stereo not given", "ClpP1P2": 15.19, "Toxoplasma": 5.801, "MtTrpRS": -0.5477, "CoaBC": -0.1186}
{"smiles": "O=S1(=O)C[C@@H]2[C@H](C1)N(Cc1cc(F)cc(F)c1)CCN2CCO", "ClpP1P2": -4.276, "MtTrpRS": -3.494, "CoaBC": 9.011}
{"smiles": "CN(Cc1ccco1)C(=O)CN1CCCCC1Cn1cccn1", "stereo": "stereo not given", "ClpP1P2": -6.764, "Toxoplasma": -6.202, "MtTrpRS": 2.424, "CoaBC": 2.051}
{"smiles": "CCC(CC)c1nnc(NC(=O)N2CCC(C(N)=O)CC2)s1", "ClpP1P2": 4.716, "Toxoplasma": 0.8933, "MtTrpRS": -3.359, "CoaBC": 1.512}
{"smiles": "O=C(O)C(F)(F)F.[H][C@@]12C[C@@H](C(=O)NC(C)C)C[C@@]1([H])N(Cc1cccs1)CCO2", "Toxoplasma": 8.498}
{"smiles": "COCC1c2c(cnn2C)CCN1Cc1cccc(C)c1", "stereo": "stereo not given", "ClpP1P2": -0.6315, "MtTrpRS": 1.521, "CoaBC": 5.013}
{"smiles": "CCn1c(C)nnc1CN(C)C1CCN(CC2CCC2)C1", "stereo": "stereo not given", "ClpP1P2": -33.71, "Toxoplasma": -4.063, "MtTrpRS": 13.17, "CoaBC": 2.611}
{"smiles": "CN(CC1(C)COC1)C(=O)c1cc(-c2cnn(C)c2)nc2ccccc12", "ClpP1P2": -27.47, "Toxoplasma": -2.748, "MtTrpRS": -4.948, "CoaBC": -0.4785}
{"smiles": "CN(C)C1(CNc2ncc(Br)cn2)CCOCC1", "ClpP1P2": -5.424, "Toxoplasma": 11.88, "MtTrpRS": 2.534, "CoaBC": -3.178}
{"smiles": "CCc1nnc2n1CCN(C(=O)CCOc1cc(C)ccc1C)C2", "ClpP1P2": 0.2525, "Toxoplasma": 20.08, "MtTrpRS": 2.799, "CoaBC": 4.237}
{"smiles": "O=C(c1cccc(CNS(=O)(=O)c2ccccc2F)c1)N1CCCC1", "ClpP1P2": -0.9274, "Toxoplasma": 1.004, "MtTrpRS": -0.8601, "CoaBC": 5.128}
{"smiles": "O=C(c1csc(C2CC2)n1)N1CCCCC1Cn1cccn1", "stereo": "stereo not given", "ClpP1P2": -22.65, "Toxoplasma": 27, "MtTrpRS": 10.05, "CoaBC": 0.894}
{"smiles": "Cn1cccc1-c1cc(C(=O)N2CCCC2c2cccnc2)[nH]n1", "stereo": "stereo not given", "ClpP1P2": 6.473, "Toxoplasma": -3.248, "MtTrpRS": 3.091, "CoaBC": 11.84}
{"smiles": "Cc1nc2ccccc2nc1NCc1nnc2n1CCC2", "ClpP1P2": -4.647, "Toxoplasma": -5.6, "MtTrpRS": -1.615, "CoaBC": 13.91}

The last 4 entries again:

* O=C(c1cccc(CNS(=O)(=O)c2ccccc2F)c1)N1CCCC1 | ClpP1P2: -0.9274%; Toxoplasma: 1.004%; MtTrpRS: -0.8601%; CoaBC: 5.128%
* O=C(c1csc(C2CC2)n1)N1CCCCC1Cn1cccn1 (stereo not given) | ClpP1P2: -22.65%; Toxoplasma: 27%; MtTrpRS: 10.05%; CoaBC: 0.894%
* Cn1cccc1-c1cc(C(=O)N2CCCC2c2cccnc2)[nH]n1 (stereo not given) | ClpP1P2: 6.473%; Toxoplasma: -3.248%; MtTrpRS: 3.091%; CoaBC: 11.84%
* Cc1nc2ccccc2nc1NCc1nnc2n1CCC2 | ClpP1P2: -4.647%; Toxoplasma: -5.6%; MtTrpRS: -1.615%; CoaBC: 13.91%